{
  "source": "patent US20080188447A1",
  "about": "“Glucocorticoid-lowering composition” (priority 2007, published 2008)",
  "test": "Daily food intake with subcutaneous steroid supplementation (Example 3)",
  "assay_type": "in vivo, rat",
  "conditions": "group C (oral corn oil vehicle, no extract), steroid 5 mg/kg/day sc on days 4 and 5",
  "procedure": "Male Wistar rats weighing about 250 g (2 groups designated as group C, control; and E, experimental treatment; 24 individuals per group) were kept as described in the Example 1 from day 1 to day 6 of the experiment. On days 1 through 4, a botanical extract from a plant Asclepias incarnata enriched with pregnane derivatives according to Formula (I) was administered orally in doses of 100 mg/kg body weight/day in 1 ml of corn oil (Sigma #C8267). As a negative control (vehicle), animals were administered orally with 1 ml of corn oil alone. On day 4 of the experiment both groups of animals C and E were further subdivided into 6 groups containing 4 animals each, designated C, control; PREG, pregnenolone; PROG, progesterone; DEOX, deoxycorticosterone; CORT, corticosterone; and DHEA, dehydroepiandrosterone. On day 4 and day 5, animals from these subgroups received a subcutaneous injection of 5 mg/kg body weight/day of the respective steroid compound in 5% DMSO and corn oil; total volume of 0.1 ml. The control animals in group C subgroup C and group E subgroup C received a subcutaneous injection of vehicle (5% DMSO in corn oil) only. On days 4 and 6 food intake was measured. […]",
  "note": "At least one compound was matched to its structure with a doubt left. Marks after values point to notes of the source that are not given here.",
  "data": [
    {"smiles": "CC(=O)[C@H]1CC[C@H]2[C@@H]3CC=C4C[C@@H](O)CC[C@]4(C)[C@H]3CC[C@]12C", "note": "[PREG, pregnenolone]", "values": [
      {"measurement": "Daily food intake, Day 4", "value": "23.9 +− 1.5 g"},
      {"measurement": "Daily food intake, Day 6", "value": "29.4 +− 0.9* g"}
    ]}
  ]
}
